PubChem BioAssay AID1259327 | Drosophila RNAi Screening Center | 2017

Assay: 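Baseline ATP after transmembrane-protein gene knock-down with water vehicle only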
Cells: Drosophila S2R+ cells
Reagents: long dsRNA against Drosophila genes
Duration: 5 days (water added on day 4, read one day later)
Challenge: water added as vehicle, no metal, one day before read-out
Measurement: 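Total ATP measured by luciferase light, scaled to plate mean, duplicates averaged, then z-scored across plates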
Direction: ATP z-score: higher = more total ATP than typical wells; ATP luminescence: higher = more total ATP
Hit rule: 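Called active when the ATP z-score exceeds 1.5 or falls below -1.5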
Meaning of the calls: active = hit: ATP up or down; inactive = no clear ATP change
Here is an unselected part of about 3,100 reagents tested. Over the whole deposit, 378 (12%) are marked active. 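Hits include both directions; z-score sign shows ATP rise or fall; raw luminescence values are not plate-normalised.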 A plus sign joins genes that one reagent is predicted to hit. Not given: the amount of reagent.

gene knocked down | DRSC id | ATP z-score, duplicate mean | ATP luminescence, replicate 1 (RLU) | ATP luminescence, replicate 2 (RLU) | Outcome
CG8323 | DRSC07149 | 1.66 | 7.79e5 | 7.60e5 | active
CG31760 | DRSC02590 | -1.2 | 6.56e5 | 5.43e5 | inactive
CG31760 | DRSC27108 | -0.0208 | 8.12e5 | 7.96e5 | inactive
CG5892 | DRSC15910 | 0.0424 | 2.93e5 | 7.86e5 | inactive
CG5892 | DRSC24710 | 0.545 | 9.71e5 | 8.64e5 | inactive
CG31689 | DRSC00734 | -2.44 | 4.55e5 | 4.52e5 | active
CG31689 | DRSC24715 | -0.154 | 8.48e5 | 7.64e5 | inactive
fzo | DRSC16954 | -0.176 | 3.10e5 | 6.96e5 | inactive
fzo | DRSC39864 | -0.7 | 5.11e5 | 5.39e5 | inactive
CG17841 | DRSC17737 | 0.0827 | 6.93e5 | 7.35e5 | inactive
CG17841 | DRSC28821 | -0.335 | 8.02e5 | 7.65e5 | inactive
CG2076 | DRSC19832 | 1.09 | 7.70e5 | 6.31e5 | inactive
CG2076 | DRSC27047 | -0.465 | 9.07e5 | 1.06e6 | inactive
mdy | DRSC01559 | -0.49 | 7.04e5 | 6.74e5 | inactive
mdy | DRSC02250 | 0.0807 | 4.88e5 | 4.81e5 | inactive
ppk20 | DRSC16260 | 1.12 | 7.22e5 | 6.87e5 | inactive
ppk20 | DRSC28819 | -0.192 | 8.32e5 | 7.70e5 | inactive
CG34011 | DRSC00888 | 0.552 | 8.27e5 | 7.76e5 | inactive
CG34011 | DRSC39571 | 0.888 | 5.23e5 | 5.28e5 | inactive
CG33337 | DRSC27000 | 2.49 | 8.58e5 | 9.81e5 | active
CG33337 | DRSC39721 | 0.67 | 5.28e5 | 4.93e5 | inactive
Ac3 | DRSC03692 | 1.11 | 8.97e5 | 8.01e5 | inactive
Ac3 | DRSC39826 | 0.443 | 5.43e5 | 4.75e5 | inactive
ZnT41F | DRSC04850 | -0.129 | 6.74e5 | 7.61e5 | inactive
LpR2 | DRSC13726 | -0.499 | 6.94e5 | 6.82e5 | inactive
LpR2 | DRSC13728 | 0.349 | 9.79e5 | 9.06e5 | inactive
LpR2 | DRSC25588 | -0.454 | 7.52e5 | 8.36e5 | inactive
Balat + asRNA:CR43469 | DRSC06852 | 0.455 | 7.34e5 | 8.26e5 | inactive
Balat + asRNA:CR43469 | DRSC39492 | 0.793 | 5.54e5 | 4.60e5 | inactive
PMCA | DRSC17113 | -0.0671 | 9.34e5 | 8.42e5 | inactive
PMCA | DRSC17114 | 2.81 | 1.28e6 | 1.25e6 | active
PMCA | DRSC17154 | 1.78 | 8.98e5 | 8.80e5 | active
CG3339 | DRSC13821 | 0.0913 | 9.13e5 | 9.03e5 | inactive
CG3339 | DRSC15479 | -1.68 | 4.69e5 | 6.37e5 | active
Or65a | DRSC08808 | 1 | 7.63e5 | 9.45e5 | inactive
Or65a | DRSC39609 | -1.95 | 3.42e5 | 3.23e5 | active
otk | DRSC07658 | -0.134 | 6.24e5 | 5.91e5 | inactive
otk | DRSC29192 | 0.552 | 8.35e5 | 9.38e5 | inactive
otk | DRSC36649 | 0.642 | 6.41e5 | 6.26e5 | inactive
otk | DRSC36650 | -1.39 | 5.21e5 | 4.01e5 | inactive

Targets above whose gene name begins with A or a:
gene knocked down | DRSC id | ATP z-score, duplicate mean | ATP luminescence, replicate 1 (RLU) | ATP luminescence, replicate 2 (RLU) | Outcome
Ac3 | DRSC03692 | 1.11 | 8.97e5 | 8.01e5 | inactive
Ac3 | DRSC39826 | 0.443 | 5.43e5 | 4.75e5 | inactive

The results go on:
gene knocked down | DRSC id | ATP z-score, duplicate mean | ATP luminescence, replicate 1 (RLU) | ATP luminescence, replicate 2 (RLU) | Outcome
et | DRSC19582 | -0.403 | 6.56e5 | 7.44e5 | inactive
CngB | DRSC04297 | 0.53 | 7.57e5 | 8.19e5 | inactive
Pkd2 | DRSC02962 | -0.402 | 6.92e5 | 6.75e5 | inactive
Pkd2 | DRSC27522 | 0.64 | 7.85e5 | 8.74e5 | inactive
CG14744 | DRSC06480 | 0.751 | 5.93e5 | 7.82e5 | inactive
PGAP1 | DRSC18286 | 0.0995 | 7.24e5 | 7.08e5 | inactive
PGAP1 | DRSC28989 | 1.51 | 1.05e6 | 9.65e5 | active
Or47b | DRSC07492 | -0.427 | 5.01e5 | 6.61e5 | inactive
Or47b | DRSC39664 | 0.333 | 5.02e5 | 4.73e5 | inactive
CG11898 | DRSC27906 | 0.941 | 7.57e5 | 8.56e5 | inactive
CG11898 | DRSC39534 | 2.1 | 6.26e5 | 5.60e5 | active
PGRP-LF + UGP | DRSC10418 | -0.272 | 8.89e5 | 8.33e5 | inactive
CG30008 | DRSC21576 | 0.229 | 4.31e5 | 7.70e5 | inactive
CG30008 | DRSC27726 | 0.826 | 2.51e5 | 9.72e5 | inactive
Gr57a | DRSC06401 | 1.82 | 8.43e5 | 7.26e5 | active
CR33013 | DRSC06286 | -0.602 | 5.43e5 | 5.87e5 | inactive
CR33013 | DRSC25681 | -1.16 | 6.98e5 | 6.70e5 | inactive
Tsp33B | DRSC02418 | 0.704 | 8.26e5 | 7.76e5 | inactive
Tsp33B | DRSC28982 | 0.366 | 9.93e5 | 7.52e5 | inactive
CG15279 | DRSC01935 | 0.447 | 4.27e5 | 5.99e5 | inactive
CG15279 | DRSC27347 | 0.447 | 1.13e6 | 1.13e6 | inactive
Slc45-1 | DRSC10427 | -0.802 | 8.28e5 | 7.55e5 | inactive
CG34450 | DRSC17822 | 0.41 | 6.84e5 | 8.10e5 | inactive
CG34450 | DRSC25085 | 1.5 | 1.13e6 | 9.45e5 | active
Vha16-4 | DRSC07321 | -0.521 | 6.03e5 | 5.41e5 | inactive
Vha16-5 | DRSC02986 | 0.485 | 7.60e5 | 7.95e5 | inactive
CG3285 | DRSC00589 | -0.321 | 3.93e5 | 5.24e5 | inactive
TkR99D | DRSC16881 | -1.36 | 5.36e5 | 7.20e5 | inactive
TkR99D | DRSC39870 | 1.38 | 6.73e5 | 7.34e5 | inactive
